PubChem BioAssay AID743121, NCATS, 2013

- Assay: 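Partners whose loss is lethal together with topoisomerase I blockade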 (primary screen)
- Cell system: MDA-MB-231 cells, a human breast cancer line
- Reagent: single siRNA against human genes, 20 nM siRNA (0.8 pmol per well)
- Timing: 120 h (drug added 48 h after transfection, read 72 h later)
- Conditions: camptothecin 20 nM (about EC30) for 72 h; vehicle 0.1% DMSO in parallel plates
- Detection: 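CellTiter-Glo ATP signal, scaled to control siRNA as percent viability; sensitisation given as log2 of untreated divided by camptothecin-treated viability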
- Reading the numbers: log2 vehicle/camptothecin viability: higher = stronger sensitisation to camptothecin; viability with camptothecin and viability without drug: higher = more viable cells
- Hit rule: 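Each gene scored by redundant siRNA activity (RSA) over its individual siRNA ratios; a gene is called active at p < 0.001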
In all, the deposit lists about 26,000 reagents; below is a part drawn at random. 167 of them (0.63%) were called active. 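Calls are per gene from RSA p-values that are not deposited; an individual active-marked siRNA can sensitise only weakly.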 The numbers tell different reagents against one gene apart.

gene symbol	reagent	log2 vehicle/camptothecin viability	viability with camptothecin (% of control)	viability without drug (% of control)	outcome
MAPKAPK5-AS1 (MAPKAPK5 antisense RNA 1)	1	0.0371	87.2	89.5	inactive
MAPKAPK5-AS1 (MAPKAPK5 antisense RNA 1)	2	-0.014	117	116	inactive
MAPKAPK5-AS1 (MAPKAPK5 antisense RNA 1)	3	-0.0257	51.2	50.3	inactive
MAPKAPK5-AS1 (MAPKAPK5 antisense RNA 1)	4	0.182	69.2	78.5	inactive
CEP55 (centrosomal protein 55)	1	0.195	71.3	81.7	inactive
CEP55 (centrosomal protein 55)	2	-0.0832	81.2	76.6	inactive
CEP55 (centrosomal protein 55)	3	0.0413	93.4	96.1	inactive
CEP55 (centrosomal protein 55)	4	0.099	103	111	inactive
SIK1 (salt inducible kinase 1)	1	-0.181	78.6	69.3	inactive
SIK1 (salt inducible kinase 1)	2	-0.243	106	89.7	inactive
SIK1 (salt inducible kinase 1)	3	-0.568	93.7	63.2	inactive
SIK1 (salt inducible kinase 1)	4	-0.257	81.6	68.3	inactive
RIPK3 (receptor interacting serine/threonine kinase 3)	1	-0.13	64.9	59.3	inactive
RIPK3 (receptor interacting serine/threonine kinase 3)	2	-0.397	95.8	72.7	inactive
RIPK3 (receptor interacting serine/threonine kinase 3)	3	-0.444	101	74.5	inactive
RIPK3 (receptor interacting serine/threonine kinase 3)	4	-0.182	77.5	68.3	inactive
CCDC136 (coiled-coil domain containing 136)	1	-0.191	82.7	72.5	inactive
CCDC136 (coiled-coil domain containing 136)	2	0.245	62.1	73.6	inactive
CCDC136 (coiled-coil domain containing 136)	3	-0.493	66.3	47.1	inactive
CCDC136 (coiled-coil domain containing 136)	4	-0.038	92.8	90.4	inactive
BDH2 (3-hydroxybutyrate dehydrogenase 2)	1	-0.272	91.2	75.5	inactive
BDH2 (3-hydroxybutyrate dehydrogenase 2)	2	0.0675	78.9	82.6	inactive
BDH2 (3-hydroxybutyrate dehydrogenase 2)	3	-0.125	77.1	70.7	inactive
BDH2 (3-hydroxybutyrate dehydrogenase 2)	4	-0.139	116	106	inactive
HSD11B1L (hydroxysteroid 11-beta dehydrogenase 1 like)	1	-0.321	97.9	78.3	inactive
HSD11B1L (hydroxysteroid 11-beta dehydrogenase 1 like)	2	0.0539	70.1	72.7	inactive
HSD11B1L (hydroxysteroid 11-beta dehydrogenase 1 like)	3	-0.316	99.6	80	inactive
HSD11B1L (hydroxysteroid 11-beta dehydrogenase 1 like)	4	-0.0792	73.9	69.9	inactive
PLEC (plectin)	1	0.182	91.1	103	inactive
PLEC (plectin)	2	-0.0154	101	99.5	inactive
PLEC (plectin)	3	-0.44	21.7	16	inactive
PLEC (plectin)	4	-0.303	95.2	77.2	inactive
BLM (BLM RecQ like helicase)	1	-0.0275	52.1	51.1	inactive
BLM (BLM RecQ like helicase)	2	0.108	91.5	98.7	inactive
BLM (BLM RecQ like helicase)	3	-2.64	89.4	14.3	inactive
H2BC17 (H2B clustered histone 17)	1	-0.387	29.8	22.8	inactive
H2BC17 (H2B clustered histone 17)	2	-0.0209	68	67	inactive
H2BC17 (H2B clustered histone 17)	3	-0.398	113	86	inactive
H2BC17 (H2B clustered histone 17)	4	-0.0519	106	102	inactive
LRP6 (LDL receptor related protein 6)	1	-0.212	72.8	62.9	inactive
LRP6 (LDL receptor related protein 6)	2	-0.4	148	112	inactive
LRP6 (LDL receptor related protein 6)	3	-0.265	74.6	62.1	inactive
LRP6 (LDL receptor related protein 6)	4	-0.0216	90.3	89	inactive
MMP15 (matrix metallopeptidase 15)	1	0.0535	98.9	103	inactive
MMP15 (matrix metallopeptidase 15)	2	-0.37	101	78.5	inactive
MMP15 (matrix metallopeptidase 15)	3	0.311	45.8	56.8	inactive
MMP15 (matrix metallopeptidase 15)	4	-0.334	83.7	66.4	inactive
OGT (O-linked N-acetylglucosamine (GlcNAc) transferase)	1	-0.145	111	100	inactive
OGT (O-linked N-acetylglucosamine (GlcNAc) transferase)	2	0.0951	71.5	76.3	inactive
OGT (O-linked N-acetylglucosamine (GlcNAc) transferase)	3	-0.536	82.5	56.9	inactive
OGT (O-linked N-acetylglucosamine (GlcNAc) transferase)	4	-0.401	80.8	61.2	inactive
AMZ2 (archaelysin family metallopeptidase 2)	1	-0.144	123	112	inactive
AMZ2 (archaelysin family metallopeptidase 2)	2	-0.0978	111	104	inactive
AMZ2 (archaelysin family metallopeptidase 2)	3	-0.278	82	67.6	inactive
AMZ2 (archaelysin family metallopeptidase 2)	4	-0.375	81.7	63	inactive
COL7A1 (collagen type VII alpha 1 chain)	1	-0.166	80.6	71.8	inactive
COL7A1 (collagen type VII alpha 1 chain)	2	-0.0161	58.7	58.1	inactive
COL7A1 (collagen type VII alpha 1 chain)	3	0.00108	79.3	79.3	inactive
FGFR4 (fibroblast growth factor receptor 4)	1	-0.757	62.7	37.1	inactive
FGFR4 (fibroblast growth factor receptor 4)	2	-0.091	35.1	33	inactive
FGFR4 (fibroblast growth factor receptor 4)	3	-0.367	23.1	17.9	inactive
FGFR4 (fibroblast growth factor receptor 4)	4	-0.459	100	72.7	inactive
ARHGAP17 (Rho GTPase activating protein 17)	1	0.541	55.6	80.8	inactive
ARHGAP17 (Rho GTPase activating protein 17)	2	-0.582	85.5	57.1	inactive
ARHGAP17 (Rho GTPase activating protein 17)	3	-0.362	99.1	77.2	inactive
ARHGAP17 (Rho GTPase activating protein 17)	4	-0.397	60.3	45.8	inactive
SLC6A12	1	-0.0526	116	112	inactive
SLC6A12	2	-0.191	79.3	69.4	inactive
SLC6A12	3	-0.164	89.9	80.3	inactive
SLC6A12	4	0.252	78.2	93.1	inactive
PTBP1 (polypyrimidine tract binding protein 1)	1	-0.345	78.7	61.9	inactive
PTBP1 (polypyrimidine tract binding protein 1)	2	-0.296	95.8	78	inactive
PTBP1 (polypyrimidine tract binding protein 1)	3	0.15	35.7	39.6	inactive
PTBP1 (polypyrimidine tract binding protein 1)	4	-0.36	22.4	17.5	inactive
LRP1 (LDL receptor related protein 1)	1	0.11	71.6	77.3	inactive
LRP1 (LDL receptor related protein 1)	2	-0.0133	79.4	78.6	inactive
LRP1 (LDL receptor related protein 1)	3	-0.357	118	92.4	inactive
LRP1 (LDL receptor related protein 1)	4	0.128	79	86.4	inactive
ADGRB1 (adhesion G protein-coupled receptor B1)	1	0.0261	48.7	49.6	inactive
ADGRB1 (adhesion G protein-coupled receptor B1)	2	-0.703	71.6	44	inactive
ADGRB1 (adhesion G protein-coupled receptor B1)	3	0.184	95.6	109	inactive
ADGRB1 (adhesion G protein-coupled receptor B1)	4	-0.0632	56.6	54.2	inactive
DICER1 (dicer 1, ribonuclease III)	1	-0.18	73.8	65.2	inactive
DICER1 (dicer 1, ribonuclease III)	2	0.129	91.7	100	inactive
DICER1 (dicer 1, ribonuclease III)	3	0.0489	85.7	88.7	inactive
DICER1 (dicer 1, ribonuclease III)	4	0.646	53.4	83.5	inactive
GCNT2 (glucosaminyl (N-acetyl) transferase 2 (I blood group))	1	1.01	46.1	92.6	inactive
GCNT2 (glucosaminyl (N-acetyl) transferase 2 (I blood group))	2	0.00587	82.5	82.9	inactive
GCNT2 (glucosaminyl (N-acetyl) transferase 2 (I blood group))	3	0.298	30	36.8	inactive

Single entries from the entries so far:
Under “viability with camptothecin (% of control)”, SLC6A12 #3 reads 89.9
For “outcome”, H2BC17 (H2B clustered histone 17) #2 shows inactive
For “viability without drug (% of control)”, OGT (O-linked N-acetylglucosamine (GlcNAc) transferase) #1 reads 100
Entry of ADGRB1 (adhesion G protein-coupled receptor B1) #2 under “viability without drug (% of control)”: 44
ARHGAP17 (Rho GTPase activating protein 17) #2, log2 vehicle/camptothecin viability = -0.582
LRP1 (LDL receptor related protein 1) #3, viability without drug (% of control): 92.4
